US11324733B2, “Methods for improving memory and cognition and for treating memory and cognitive disorders” (Cavion, Inc., priority 2017, dated 2022)
At least one structure is not confirmed: it was looked up by name or label, or the drawing left a doubt.

Tested on: AS mice (Ube3am−/p+ KO mice) with LTP deficits
Experiment: LTP deficits in cognitively deficient (AS) mice; fEPSP recording in hippocampal slices after oral treatment
Assay type: in vivo
Conditions: for LTP (normalized fEPSP slope potentiation) of treated AS mice versus AS vehicle: hippocampal slices, 10 Theta burst protocol, last 10 min of recording; for LTP of treated AS mice compared with control (wt) mice: both dosages (30 and 60 mg/kg)
Method: For all behavioral and electrophysiology experiments female Ube3am−/p+ KO mice (i.e., AS mice) were crossed with wild-type males, to generate heterozygous AS mice and littermate controls in the F1 hybrid 12952-057BL/6 background. The AS mice have cognitive deficits, including long term potentiation (LTP) deficits.
Control mice (“wt”) were treated with vehicle while AS mice were treated with vehicle or MK-8998 (“CX”) at 30 mg/kg or at 60 mg/kg dose given orally twice per day in the morning and afternoon. Dosing was carried out for one week before testing, then behavioral tests were carried out on the animals over a 5-week period.
After the behavioural tests, animals remained under treatment until the animals were sacrificed one hour after the last drug administration. After the animals had been sacrificed, sagittal slices (400 μm) were made using a vibratome and submerged in ice-cold artificial CSF (ACSF), and hippocampi were dissected out. These sagittal hippocampal slices were maintained at room temperature for at least 1.5 h to recover before experiments were initiated. Then they were placed in a submerged recording chamber and perfused continuously at a rate of 2 ml/min with ACSF at 31° C., equilibrated with 95% O2 and 5% CO2. ACSF contained the following (in mM): 120 NaCl, 3.5 KCl, 2.5 CaCl2, 1.3 MgSO4, 1.25 NaH2PO4, 26 NaHCO3, and 10 D-glucose. Extracellular recording of field EPSP (fEPSPs) were made in CA1 stratum radiatum with platinum/iridium (Pt/Ir) electrodes (FHC). A bipolar Pt/Ir (FHC) was used to stimulate Schaffer-collateral/commissural afferents with a stimulus duration of 100 μs. LTP was evoked using the 10 Theta burst protocol (10 trains of 4 stimuli at 100 Hz, 200 ms apart), performed at two-third of the maximum fEPSP. fEPSP sizes were recorded once per minute. Potentiation was measured as the normalized increase of the mean fEPSP slope for the duration of the baseline. Only stable recordings were included, and this judgment was made blind to genotype. Final LTP was determined over the last 10 min of the recording.
After the behavioural tests, animals remained on treatment until the animal was sacrificed in order to determine synaptic plasticity in hippocampal slices. The mice were divided in two groups for the LTP measurements. Electrodes were replaced between these experiments.
LTP was evoked using the 10 Theta burst protocol (10 trains of 4 stimuli at 100 Hz, 200 ms apart), performed at two-third of the maximum fEPSP. Final LTP was determined over the last 10 min of the recording. We observed in both experiments a significant effect of genotype (F3,103=6.6, P<0.001; Repeated measures ANOVA).

`CC(C)c1ccc(CC(=O)N[C@H](C)c2ccc(OCC(F)(F)F)cn2)cc1` [MK-8998] was tested, and the “LTP (normalized fEPSP slope potentiation) of treated AS mice versus AS vehicle” value (30 mg/kg orally twice per day) was “fully rescued the LTP deficit”, the “LTP (normalized fEPSP slope potentiation) of treated AS mice versus AS vehicle” value (30 mg/kg orally twice per day, listed as CX-8998) was “significant improvement of LTP” and the “LTP (normalized fEPSP slope potentiation) of treated AS mice versus AS vehicle” value (60 mg/kg orally twice per day) was “fully rescued the LTP deficit”. For the same compound, the “LTP (normalized fEPSP slope potentiation) of treated AS mice versus AS vehicle” value (60 mg/kg orally twice per day, listed as CX-8998) was “significant improvement of LTP”, the “LTP of treated AS mice compared with control (wt) mice” value was “indistinguishable from the control” and the “LTP of treated AS mice compared with control (wt) mice” value (listed as CX-8998) was “indistinguishable from wild-type mice”.
